# Most values lie at the floor of the assay. Slopes are relative: functional sequences can read slightly below zero.
# Tested on: Saccharomyces cerevisiae PS128 hsf1 delta, HSF1(1-493) fusion
# Assay: growth estimate (transactivation domain function in HSF1 fusion, heat-shock survival) (a.u. (slope of normalised read count over time)); higher = stronger growth at 37°C, i.e. more transactivation activity
# Conditions: library: random library
# Experimental: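 Random 60-nt DNA library encoding peptides of up to 20 aa, fused to the C-terminus of yeast HSF1 residues 1-493 (C-terminal TAD deleted) and expressed from the native HSF1 promoter on a CEN plasmid in hsf1-deleted S. cerevisiae PS128. Cells were selected at 37°C on -trp 5-FOA plates for 0, 2, 4, 6 and 8 days and amplicons were sequenced. Growth estimate is the slope of a robust linear fit of total-sum-normalised read counts (normalised to the first time point) over time, using at least 2 replicates. Sequences are classed functional (TAD activity) above a threshold of -0.13, set from stop-codon control sequences.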
row,Substance,growth estimate
1,GMNPAVRGPDRCNGLSMRLG,< -0.25
2,GMPFSTWSRICDTIPAQERQ,< -0.25
3,GMRLRYHIHSLFDSNRTTGL,< -0.25
4,GMRMHFFLGLRHGGKFEHRD,< -0.25
5,GMSGSPVLEARGKRSGGGGR,< -0.25
6,GMSRPFPK,< -0.25
7,GMVGDSPWAGFP,< -0.25
8,GMVGIA,< -0.25
9,GNGRRKIPHFSQNIVSATNV,< -0.25
10,GNGSSCRVITQHLLVTPGAP,< -0.25
11,GNHTVSCRAASGC,< -0.25
12,GNIESLVLATLSACSRPK,< -0.25
13,GNIKGGKRSKGIKRGGCRDA,< -0.25
14,GNILRYC,< -0.25
15,GNIPVALSRRSNDATC,-0.221
16,GNLCAMS,< -0.25
17,GNLE,< -0.25
18,GNLRAEMRRHAGGREEVTGR,< -0.25
19,GNLRRA,< -0.25
20,GNMAWVWRLLHCRLRYRITC,< -0.25
21,GNQEAASIDNGTGYSEDIAR,< -0.25
22,GNRGELTHCGGGKHNQERST,< -0.25
23,GNRLSTLSSASP,< -0.25
24,GNRRCKR,< -0.25

row,Substance,growth estimate
1,GNRSRPLRPVIRMVRLSLRP,< -0.25
2,GNSIAWMGLPCACRGRVGLL,< -0.25
3,GNSYPNAPMTNLKLRHSAFR,< -0.25
4,GNTPGSG,< -0.25
5,GNTRYL,< -0.25
6,GNV,< -0.25
7,GNVGMEGMMLISGVAQN,< -0.25
8,GNVPP,< -0.25
9,GNVWPKPYYILRRPKKPSLR,< -0.25
10,GNWLSVS,< -0.25
11,GPAGHADTVPL,< -0.25
12,GPALLRTIVCEL,< -0.25
13,GPAMQVLLLTHS,< -0.25
14,GPASPALWLTKGCELAEPRT,< -0.25
15,GPAVSSAGVGGSGVDTGVLP,< -0.25
16,GPC,< -0.25
17,GPCGCLYLQQLIFGEWPTTS,< -0.25
18,GPDANEGSPKLPDQVSWTVS,< -0.25
19,GPECGRFASQLLDKYHLSSP,< -0.25
20,GPEPHS,< -0.25
21,GPFQRSDEILSQFEVFGVQP,< -0.25
22,GPGIRTSPISVARA,< -0.25
23,GPGMALCRSRLSSARYMSQY,< -0.25
24,GPGN,< -0.25

# A second format for part of the listing above.
row	Substance	growth estimate
2	GNSIAWMGLPCACRGRVGLL	< -0.25
14	GPASPALWLTKGCELAEPRT	< -0.25

# More results.

row,Substance,growth estimate
1,GPGRTFGRPLSGGMG,< -0.25
2,GPGYYYFAK,< -0.25
3,GPHILLYVVNNG,< -0.25
4,GPIECHPRQKA,< -0.25
5,GPIWWYSDRGPSLEPFHPLD,-0.161
6,GPIYVRSYE,< -0.25
7,GPKGGPAENCSSDCWTTRIY,< -0.25
8,GPLGHLKEVVLQSPDRGSLE,< -0.25
9,GPLMIQWEQSRSDKGCHRPG,< -0.25
10,GPLQRL,-0.246
11,GPLVGS,< -0.25
12,GPMGHE,< -0.25
13,GPMLLVQNAVTFK,< -0.25
14,GPNDFIGSPVSIIGLGRASY,< -0.25
15,GPNLRQR,< -0.25
16,GPPNTRH,< -0.25
17,GPQRYLERWVPTKVRRVANY,< -0.25
18,GPRNHRSKV,< -0.25
19,GPRPRGGLCWKARIRLCSMP,< -0.25
20,GPRSWICRAHGVLPQLNCVP,< -0.25
21,GPSG,< -0.25
22,GPSGRSEVCDDVQSDIA,< -0.25
23,GPSLGRECGVILSITQSIIC,< -0.25
24,GPSRGGCREPSRRGTACYAR,< -0.25

row,Substance,growth estimate
1,GPT,< -0.25
2,GPTAYLWTIRLQRVEVEPGV,< -0.25
3,GPTESAVVLGLKVFGLCQNH,< -0.25
4,GPTGSDFGSCVWVGYMSLPA,< -0.25
5,GPTHTNGHDLGTPTKLSFLS,< -0.25
6,GPVFGCSKNLAGAAHAK,-0.243
7,GPVKSSISHALLRGKNDGSS,< -0.25
8,GPVQLERCIVMFWHYIILRP,< -0.25
9,GPVSRG,< -0.25
10,GPVTPTRHRKRCVVRTVCLS,< -0.25
11,GPVVMGYC,< -0.25
12,GPWNELGYYQLIRPRVLMGR,< -0.25
13,GPYHVSD,< -0.25
14,GPYRWLLDRVRDPDHSTRAF,< -0.25
15,GQA,< -0.25
16,GQAAHEFAPSRLLPSSSGRQ,< -0.25
17,GQDFAGHTERVPVFCPYEQS,< -0.25
18,GQEALASGGPP,< -0.25
19,GQENLSMYIHERFMGRQIV,< -0.25
20,GQFTKEIGS,< -0.25
21,GQGER,< -0.25
22,GQGGDRVYCCLLT,< -0.25
23,GQGLRRPFPEAPRQYCAPQS,< -0.25
24,GQGTVLIYVDVLGCSCVALL,< -0.25

row,Substance,growth estimate
1,GQHEDLVTGNMA,< -0.25
2,GQHSLEMVTQVVMML,< -0.25
3,GQIFTRFMVFDRTVGWQDNS,< -0.25
4,GQLARLRYLCRCTFVGALNR,< -0.25
5,GQLK,< -0.25
6,GQLQEIRGIKRCQYLRHTDY,< -0.25
7,GQLWSRRVEGRSWVLLFPGI,< -0.25
8,GQMLLNA,< -0.25
9,GQNCSYQSILTKPETRPTIT,< -0.25
10,GQPC,< -0.25
11,GQPLQTGS,< -0.25
12,GQPPIEHSHGGGPSRHWQSL,< -0.25
13,GQPRF,< -0.25
14,GQPSNLYGLWRGAPTVTCQL,< -0.25
15,GQRRRSHRGGIKSRESCSHS,< -0.25
16,GQSSLSWDAMPLSGSCQQHT,-0.206
17,GQTTALVAYSRPCSDSGFVD,< -0.25
18,GQVAFDGRFGQITTLSMQDH,< -0.25
19,GQVASCSPGYRASSLRSVST,< -0.25
20,GQVDFVSERVYSPGSNLYCA,< -0.25
21,GQVFRVTEPLSWFHRILPQT,< -0.25
22,GQVTVILNSSEVREFLSPQR,< -0.25
23,GQWKGLVALR,< -0.25
24,GQYFFLGGMNP,-0.219

# Shown as tab-separated lines: part of the list above
row	Substance	growth estimate
11	GQPLQTGS	< -0.25
12	GQPPIEHSHGGGPSRHWQSL	< -0.25
13	GQPRF	< -0.25
14	GQPSNLYGLWRGAPTVTCQL	< -0.25
15	GQRRRSHRGGIKSRESCSHS	< -0.25

# Carrying on.

row,Substance,growth estimate
1,GQYVVDSTSTSLNGQGKALD,< -0.25
2,GRADVN,< -0.25
3,GRAIRPLGTR,< -0.25
4,GRAKTCAPHGIDLKSTRYEG,< -0.25
5,GRALVDFYSV,< -0.25
6,GRATLSIPCKSE,< -0.25
7,GRCDR,< -0.25
8,GRCPDYLQEQLAY,< -0.25
9,GRDGDEAGGVRVCLG,< -0.25
10,GREICS,< -0.25
11,GRERGP,< -0.25
12,GRESHKKPGHRGEGVGQGLQ,< -0.25
13,GRETRSGGLSFEILPSDNWQ,< -0.25
14,GRFNAGCNSCYIFSRVEIQP,< -0.25
15,GRGG,< -0.25
16,GRGHNPV,< -0.25
17,GRGKLWGRRLFAANHLDRLG,< -0.25
18,GRGKPGRNAMGG,< -0.25
19,GRGKTLRSVAG,< -0.25
20,GRGPV,-0.232
21,GRGTCGRKIFNVPGSVDI,< -0.25
22,GRGYHTERAGLRLGSAPARW,< -0.25
23,GRHATPTNETWFYKLLVFWC,< -0.25
24,GRHIALVRISLSVGVAVSSA,< -0.25

row,Substance,growth estimate
1,GRIVKTGYGSS,< -0.25
2,GRKLWEVPFDVKDDLRLGNP,< -0.25
3,GRKYVYLEWRLPPF,< -0.25
4,GRLGCPLWYVSPLRVLCGEQ,< -0.25
5,GRLGYT,< -0.25
6,GRLIFINESEVTQVG,< -0.25
7,GRLPQTGDRAQHVLAPRSAT,< -0.25
8,GRLR,< -0.25
9,GRLSRGCAQHSQGKWISL,< -0.25
10,GRLVGLYVETEYSLLCLVQR,< -0.25
11,GRLVGPELRS,< -0.25
12,GRLYHARLMAQSPCMGGGVV,< -0.25
13,GRMVGRLADYYLLQLR,< -0.25
14,GRPDLG,< -0.25
15,GRPGRNFSWPSRTD,< -0.25
16,GRPSMNCLP,< -0.25
17,GRPT,< -0.25
18,GRQELLVCQNRWD,< -0.25
19,GRQEVNQGEQSLDQAMGAYN,-0.112
20,GRRN,< -0.25
21,GRRNRGSCGTQLWEPSRSAR,< -0.25
22,GRRPRSSVRVSGYSHHIQGY,< -0.25
23,GRRTFGS,< -0.25
24,GRRVPAELTHPTCDTRCPGH,< -0.25

# Given with bars between the fields: entries from further up.
row | Substance | growth estimate
8 | GMVGIA | < -0.25
6 | GNV | < -0.25
3 | GPTESAVVLGLKVFGLCQNH | < -0.25
1 | GQHEDLVTGNMA | < -0.25
6 | GRLIFINESEVTQVG | < -0.25

# Additional records follow:

row,Substance,growth estimate
1,GRRYRFAST,< -0.25
2,GRSDVTRMG,< -0.25
3,GRSGQFATYGKGNS,< -0.25
4,GRSLKEETNVEDPIGIQESL,< -0.25
5,GRSLRKG,< -0.25
6,GRSQLMRSGGAREST,< -0.25
7,GRSSVEGCPWVVQTCIVHTT,< -0.25
8,GRST,-0.245
9,GRSYYGFHSRAGKPVLSS,< -0.25
10,GRTEVCSDPRFAMHPVVGME,-0.246
11,GRTSIGQCCLHALQPRTMQS,< -0.25
12,GRTSLPAHGVRSPTCDGGRP,< -0.25
13,GRVALLSLKSREGIIGS,< -0.25
14,GRVGITLSAKGHSGRAVGRT,< -0.25
15,GRVLGMSSPTEAWTILEVKT,< -0.25
16,GRVRDRSSKQPFKLL,< -0.25
17,GRVT,< -0.25
18,GRVVENVFKRYKGS,< -0.25
19,GRWEKVKIEKGEP,< -0.25
20,GRWIIYCVKFETASVCSYTG,-0.245
21,GRWIYMFKQLVDFHNGP,< -0.25
22,GRWRS,< -0.25
23,GSAFPQLLW,< -0.25
24,GSASKWQVYPKAIASLLGRI,< -0.25

# — the supplement of paper PMC5949888
